Reference: PubChem BioAssay (Tox21)
All entries are inconclusive by the source's own rule. Clear calls are listed elsewhere. Unless noted, calls follow the shape of the dose curve; as a rule, active = well fitted curve in the direction sought with a large enough effect in the repeat runs; inconclusive = weak or mixed curves; inactive = no such curve, though single readings can be large; an effect the other way counts as inactive or inconclusive.

Chains of the proteins cited; added tags and fusions are not shown.
UniProt P10275, whole entry: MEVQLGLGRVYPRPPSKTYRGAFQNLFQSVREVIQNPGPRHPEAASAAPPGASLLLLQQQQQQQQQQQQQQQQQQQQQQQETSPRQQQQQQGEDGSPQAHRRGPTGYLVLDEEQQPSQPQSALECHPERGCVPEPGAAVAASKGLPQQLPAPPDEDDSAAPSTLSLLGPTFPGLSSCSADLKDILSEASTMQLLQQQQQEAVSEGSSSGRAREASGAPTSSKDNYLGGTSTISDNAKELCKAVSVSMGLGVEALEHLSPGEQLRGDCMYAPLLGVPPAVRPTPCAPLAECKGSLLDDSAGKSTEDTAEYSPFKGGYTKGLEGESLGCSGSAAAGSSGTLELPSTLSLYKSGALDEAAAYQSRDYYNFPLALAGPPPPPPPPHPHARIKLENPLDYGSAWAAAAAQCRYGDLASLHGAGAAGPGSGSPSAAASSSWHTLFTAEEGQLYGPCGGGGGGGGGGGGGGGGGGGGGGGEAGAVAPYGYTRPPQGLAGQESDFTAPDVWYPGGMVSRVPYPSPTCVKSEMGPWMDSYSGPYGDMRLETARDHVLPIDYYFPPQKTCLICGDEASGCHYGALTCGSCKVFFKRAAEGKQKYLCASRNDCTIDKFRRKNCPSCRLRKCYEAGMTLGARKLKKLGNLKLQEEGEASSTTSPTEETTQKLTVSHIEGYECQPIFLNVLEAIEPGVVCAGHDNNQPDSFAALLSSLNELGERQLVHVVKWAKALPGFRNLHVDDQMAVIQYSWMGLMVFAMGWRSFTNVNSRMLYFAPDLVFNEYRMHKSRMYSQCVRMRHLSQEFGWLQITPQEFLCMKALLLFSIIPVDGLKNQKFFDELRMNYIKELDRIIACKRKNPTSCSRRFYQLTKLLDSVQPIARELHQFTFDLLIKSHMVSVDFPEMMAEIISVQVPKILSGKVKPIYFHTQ
UniProt P03372, whole entry: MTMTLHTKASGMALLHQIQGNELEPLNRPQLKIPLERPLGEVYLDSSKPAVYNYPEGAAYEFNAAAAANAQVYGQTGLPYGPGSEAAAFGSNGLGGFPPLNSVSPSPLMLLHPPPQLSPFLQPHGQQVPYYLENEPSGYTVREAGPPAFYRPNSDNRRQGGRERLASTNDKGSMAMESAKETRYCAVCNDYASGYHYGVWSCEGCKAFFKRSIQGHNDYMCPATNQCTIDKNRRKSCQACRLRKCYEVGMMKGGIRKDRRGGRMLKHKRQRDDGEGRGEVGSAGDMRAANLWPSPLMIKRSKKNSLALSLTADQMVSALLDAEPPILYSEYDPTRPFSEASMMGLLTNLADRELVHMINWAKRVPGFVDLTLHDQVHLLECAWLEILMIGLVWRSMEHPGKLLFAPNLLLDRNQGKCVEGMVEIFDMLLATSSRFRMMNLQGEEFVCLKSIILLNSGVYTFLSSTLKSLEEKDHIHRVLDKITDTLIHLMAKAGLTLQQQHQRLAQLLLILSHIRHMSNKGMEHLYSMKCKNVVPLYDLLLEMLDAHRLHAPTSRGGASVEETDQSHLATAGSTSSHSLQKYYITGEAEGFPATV
UniProt P35869, whole entry: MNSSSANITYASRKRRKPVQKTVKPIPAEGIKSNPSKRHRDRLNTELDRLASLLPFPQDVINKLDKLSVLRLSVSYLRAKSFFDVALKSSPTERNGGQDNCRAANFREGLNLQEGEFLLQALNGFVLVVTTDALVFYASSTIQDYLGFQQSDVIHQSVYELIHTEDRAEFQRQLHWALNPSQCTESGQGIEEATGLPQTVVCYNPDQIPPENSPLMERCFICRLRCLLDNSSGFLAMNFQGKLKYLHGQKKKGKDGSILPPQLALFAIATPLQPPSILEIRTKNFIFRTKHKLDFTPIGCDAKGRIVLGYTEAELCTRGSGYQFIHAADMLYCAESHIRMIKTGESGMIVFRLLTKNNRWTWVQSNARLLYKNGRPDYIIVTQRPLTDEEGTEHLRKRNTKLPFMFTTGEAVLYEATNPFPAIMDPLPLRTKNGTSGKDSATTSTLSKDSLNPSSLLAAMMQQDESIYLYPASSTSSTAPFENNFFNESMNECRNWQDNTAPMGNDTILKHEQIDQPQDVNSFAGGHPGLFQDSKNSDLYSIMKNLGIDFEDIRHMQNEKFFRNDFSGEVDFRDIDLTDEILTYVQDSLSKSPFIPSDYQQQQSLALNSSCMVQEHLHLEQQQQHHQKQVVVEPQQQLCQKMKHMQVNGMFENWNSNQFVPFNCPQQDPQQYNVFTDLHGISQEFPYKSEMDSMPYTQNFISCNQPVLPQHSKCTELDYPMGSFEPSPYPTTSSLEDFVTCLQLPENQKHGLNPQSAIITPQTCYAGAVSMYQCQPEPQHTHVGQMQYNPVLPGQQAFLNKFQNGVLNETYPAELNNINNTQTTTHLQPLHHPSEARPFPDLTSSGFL
UniProt P37231, whole entry: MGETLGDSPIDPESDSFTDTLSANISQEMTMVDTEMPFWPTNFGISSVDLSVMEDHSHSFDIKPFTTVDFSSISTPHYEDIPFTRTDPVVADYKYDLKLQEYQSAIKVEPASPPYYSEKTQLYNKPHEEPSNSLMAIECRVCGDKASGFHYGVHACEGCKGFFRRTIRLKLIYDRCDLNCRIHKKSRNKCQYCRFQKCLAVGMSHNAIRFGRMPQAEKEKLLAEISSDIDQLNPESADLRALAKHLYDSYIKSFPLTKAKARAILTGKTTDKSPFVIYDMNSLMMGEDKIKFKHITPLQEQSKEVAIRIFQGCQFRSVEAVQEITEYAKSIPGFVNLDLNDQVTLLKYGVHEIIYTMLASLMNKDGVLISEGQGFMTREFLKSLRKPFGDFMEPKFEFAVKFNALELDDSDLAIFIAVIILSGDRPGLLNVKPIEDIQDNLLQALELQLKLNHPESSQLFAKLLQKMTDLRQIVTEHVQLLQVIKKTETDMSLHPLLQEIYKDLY
UniProt Q96RI1, whole entry: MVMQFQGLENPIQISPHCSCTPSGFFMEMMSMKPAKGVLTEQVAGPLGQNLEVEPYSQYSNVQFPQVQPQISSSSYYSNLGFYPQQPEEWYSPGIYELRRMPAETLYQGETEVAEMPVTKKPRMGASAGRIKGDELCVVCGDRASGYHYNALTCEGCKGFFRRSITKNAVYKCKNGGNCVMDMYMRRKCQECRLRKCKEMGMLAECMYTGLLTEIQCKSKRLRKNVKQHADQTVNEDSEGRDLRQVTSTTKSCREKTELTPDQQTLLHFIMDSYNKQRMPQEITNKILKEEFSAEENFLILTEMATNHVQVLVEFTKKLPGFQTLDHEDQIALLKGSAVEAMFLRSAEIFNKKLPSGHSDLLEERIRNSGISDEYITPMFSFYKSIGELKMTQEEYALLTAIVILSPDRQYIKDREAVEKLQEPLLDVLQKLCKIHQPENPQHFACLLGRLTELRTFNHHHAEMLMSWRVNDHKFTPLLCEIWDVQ
UniProt P19793, whole entry: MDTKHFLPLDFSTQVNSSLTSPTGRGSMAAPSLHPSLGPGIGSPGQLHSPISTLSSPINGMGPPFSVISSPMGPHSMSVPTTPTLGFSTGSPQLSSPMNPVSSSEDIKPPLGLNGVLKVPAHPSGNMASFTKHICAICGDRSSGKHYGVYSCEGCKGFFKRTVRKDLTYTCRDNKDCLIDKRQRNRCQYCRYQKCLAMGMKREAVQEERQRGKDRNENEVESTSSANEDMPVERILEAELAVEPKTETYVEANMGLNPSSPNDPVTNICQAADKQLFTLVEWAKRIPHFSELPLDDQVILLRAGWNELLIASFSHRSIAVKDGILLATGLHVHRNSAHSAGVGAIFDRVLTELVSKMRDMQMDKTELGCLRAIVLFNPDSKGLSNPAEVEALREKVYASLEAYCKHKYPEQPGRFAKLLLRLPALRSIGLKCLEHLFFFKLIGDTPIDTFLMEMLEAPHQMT
UniProt P06401, whole entry: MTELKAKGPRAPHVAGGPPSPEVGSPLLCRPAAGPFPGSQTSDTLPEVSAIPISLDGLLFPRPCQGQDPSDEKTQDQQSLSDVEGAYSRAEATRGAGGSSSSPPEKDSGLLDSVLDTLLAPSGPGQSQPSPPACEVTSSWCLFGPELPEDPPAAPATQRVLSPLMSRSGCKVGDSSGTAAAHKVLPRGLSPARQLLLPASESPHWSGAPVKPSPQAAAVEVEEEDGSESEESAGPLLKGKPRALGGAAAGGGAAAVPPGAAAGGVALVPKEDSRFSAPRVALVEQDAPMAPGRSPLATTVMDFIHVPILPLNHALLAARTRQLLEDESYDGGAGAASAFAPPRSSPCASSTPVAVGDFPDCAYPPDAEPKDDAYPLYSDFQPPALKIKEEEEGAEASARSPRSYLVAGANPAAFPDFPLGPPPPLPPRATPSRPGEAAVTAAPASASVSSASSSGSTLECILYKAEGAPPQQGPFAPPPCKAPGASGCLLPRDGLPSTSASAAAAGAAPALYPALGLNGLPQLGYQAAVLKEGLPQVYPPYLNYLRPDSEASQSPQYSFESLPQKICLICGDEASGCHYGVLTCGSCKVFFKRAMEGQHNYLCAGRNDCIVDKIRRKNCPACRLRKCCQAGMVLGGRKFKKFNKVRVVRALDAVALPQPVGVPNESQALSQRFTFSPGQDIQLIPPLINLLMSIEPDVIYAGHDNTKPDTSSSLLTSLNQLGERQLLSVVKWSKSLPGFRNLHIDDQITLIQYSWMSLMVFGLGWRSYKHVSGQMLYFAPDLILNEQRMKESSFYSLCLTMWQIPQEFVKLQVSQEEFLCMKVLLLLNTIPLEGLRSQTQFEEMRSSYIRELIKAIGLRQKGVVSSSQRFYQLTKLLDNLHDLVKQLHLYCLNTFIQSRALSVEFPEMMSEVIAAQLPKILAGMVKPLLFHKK
UniProt P11712, whole entry: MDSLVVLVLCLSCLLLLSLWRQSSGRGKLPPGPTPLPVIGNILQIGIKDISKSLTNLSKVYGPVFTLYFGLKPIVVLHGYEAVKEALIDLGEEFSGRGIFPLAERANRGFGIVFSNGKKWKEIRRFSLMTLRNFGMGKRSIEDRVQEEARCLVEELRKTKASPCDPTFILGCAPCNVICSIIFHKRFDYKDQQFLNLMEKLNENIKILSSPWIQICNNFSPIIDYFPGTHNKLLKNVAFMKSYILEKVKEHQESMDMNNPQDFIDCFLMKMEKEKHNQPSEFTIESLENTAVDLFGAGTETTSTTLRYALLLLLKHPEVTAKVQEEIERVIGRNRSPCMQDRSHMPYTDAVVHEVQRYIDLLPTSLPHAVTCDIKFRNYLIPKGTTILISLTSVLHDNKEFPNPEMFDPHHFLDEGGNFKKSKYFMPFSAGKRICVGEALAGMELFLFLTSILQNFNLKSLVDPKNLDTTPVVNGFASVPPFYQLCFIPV

Key:
[1] = qHTS assay for small molecule disruptors of the mitochondrial membrane potential (AID 720635); details: HepG2 mitochondrial membrane potential, Mito-MPS dye ratio; ratio activity, negative = MMP loss: at 83.2 µM (top of the series); also: % is scaled to controls: 0 for no effect and ±100 for the full control effect
Method in brief: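 HepG2 cells (2,000/well) attached overnight at 37C, then took compound for 1 hr at 37C, 5% CO2. Mito-MPS dye was added for 30 min; fluorescence was read at 490/535 nm (monomers) and 540/590 nm (aggregates).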

[2] = qHTS assay to identify small molecule antagonists of the androgen receptor (AR) signaling pathway - cell viability counter screen (AID 743033; also: potency is read from the fitted curve at half-maximal effect; nearly all actives have a fitted effect of over 45% in size); details: AR-bla HEK293 viability, CellTiter-Glo luminescence, 16 h
[3] = molecular target: Androgen receptor (Homo sapiens) (UniProt P10275); experiment: qHTS assay to identify small molecule antagonists of the androgen receptor (AR) signaling pathway (AID 743035; active = well fitted inhibition curve with a large enough effect in the signal ratio in the repeat runs, not every such curve was filed as active; inconclusive = weak or mixed curves, or effect the other way; inactive = no such curve, though single readings can be large or run the other way; the % refers to the signal ratio; also: potency is read from the fitted curve at half-maximal effect); details: HEK293 AR-UAS-bla, R1881-stimulated, beta-lactamase FRET, 16 h
[4] = qHTS assay to identify small molecule antagonists of the androgen receptor (AR) signaling pathway using the MDA cell line - cell viability counter screen (AID 743041; also: % is scaled to controls: 0 for no effect and ±100 for the full control effect; nearly all actives have a fitted effect of over 45% in size); details: MDA-kb2 viability, CellTiter-Fluor, 16 h, cells co-treated with R1881 androgen agonist; viability change, negative = cytotoxic: at 70.3 µM (top of the series)
Method in brief: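 qHTS viability read-out; MDA-kb2 AR-luc; R1881-stimulated; 16 h exposure at 37C, 0% CO2; CellTiter-Fluor, 30 min; fluorescence intensity.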

[5] = molecular target: Androgen receptor (Homo sapiens) (UniProt P10275); experiment: qHTS assay to identify small molecule antagonists of the androgen receptor (AR) signaling pathway using the MDA cell line (AID 743042; also: potency is read from the fitted curve at half-maximal effect; nearly all actives have a fitted effect of over 55% in size); details: MDA-kb2 AR-luc, MMTV luciferase, R1881 antagonist, 16 h
[6] = molecular target: Estrogen receptor (Homo sapiens) (UniProt P03372); experiment: qHTS assay to identify small molecule antagonists of the estrogen receptor alpha (ER-alpha) signaling pathway (AID 743069; active = well fitted curve in the direction sought with a large enough effect in the signal ratio in the repeat runs, not every such curve was filed as active; inconclusive = weak or mixed curves, or effect the other way; inactive = no such curve, though single readings can be large or run the other way; the % refers to the signal ratio; also: potency is read from the fitted curve at half-maximal effect); details: HEK293 ER-alpha-UAS-bla, beta-lactamase ratio, antagonist mode
Method in brief: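 Screening used a UAS-driven beta-lactamase reporter integrated into HEK293 cells expressing ER-alpha, stimulated with 17beta-estradiol alongside test compounds over 18 hr at 37C; signal came from LiveBLAzer B/G FRET fluorescence.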

[7] = molecular target: Estrogen receptor (Homo sapiens) (UniProt P03372); experiment: qHTS assay to identify small molecule agonists of the estrogen receptor alpha (ER-alpha) signaling pathway using the BG1 cell line (AID 743079); details: BG1Luc4E2 cells, ERE-luciferase agonist, 22 h; also: potency is read from the fitted curve at half-maximal effect; nearly all actives have a fitted effect of over 20% in size
[8] = qHTS assay to identify small molecule antagonists of the estrogen receptor alpha (ER-alpha) signaling pathway using the BG1 cell line (AID 743080; calls by dose curve;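 also: BG1 cells stimulated with 17beta-estradiol alongside compound; % is scaled to controls: 0 for no effect and ±100 for the full control effect; nearly all actives have a fitted effect of over 25% in size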); details: BG1Luc4E2 ERE-luciferase antagonist mode, luminescence; activity change, negative = inhibition: at 70.3 µM (top of the series)
Method in brief: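 BG1-Luc-4E2 cells (endogenous full-length ER-alpha, stable 4×ERE-luciferase) were starved 5 days in phenol-red-free medium with 10% charcoal-stripped FBS, plated 24 h, then given compound plus 17beta-estradiol for 21.5 h at 37 C; ONE-Glo luminescence read after 30 min.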

[9] = molecular target: Aryl hydrocarbon receptor (Homo sapiens) (UniProt P35869); experiment: qHTS assay to identify small molecule that activate the aryl hydrocarbon receptor (AhR) signaling pathway (AID 743085); details: HepG2 AhR-luc (HG2L7.5c1), luciferase, 24 h; also: potency is read from the fitted curve at half-maximal effect; nearly all actives have a fitted effect of over 15% in size
[10] = qHTS assay to identify small molecule that activate the aryl hydrocarbon receptor (AhR) signaling pathway - cell viability counter screen (AID 743086); details: HepG2-AhR-luc viability, CellTiter-Fluor, 24 h; also: potency is read from the fitted curve at half-maximal effect; nearly all actives have a fitted effect of over 45% in size
Method in brief: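 HepG2-AhR-luc (HG2L7.5c1) cells, 4000/well, were preincubated 5 h at 37C, exposed to compound in qHTS format for 24 hr at 37C, then given CellTiter-Fluor for 30 min; viability was read as fluorescence in the reporter wells.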

[11] = molecular target: Peroxisome proliferator-activated receptor gamma (Homo sapiens) (UniProt P37231); experiment: qHTS assay to identify small molecule agonists of the peroxisome proliferator-activated receptor gamma (PPARg) signaling pathway (AID 743094; active = well fitted activation curve with a large enough effect in the signal ratio in the repeat runs, not every such curve was filed as active; inconclusive = weak or mixed curves, or effect the other way; inactive = no such curve, though single readings can be large or run the other way; the % refers to the signal ratio; also: potency is read from the fitted curve at half-maximal effect); details: HEK293H PPARg-UAS-bla, beta-lactamase FRET ratio, 17 h
Method in brief: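 Cell-based bla reporter, HEK293H background, PPARg-driven UAS. Pre-incubation 5 h, 37C, 5% CO2. Compound 17 h, 37C. Substrate 1 h RT; fluorescence.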

[12] = molecular target: Peroxisome proliferator-activated receptor gamma (Homo sapiens) (UniProt P37231); experiment: qHTS assay to identify small molecule antagonists of the peroxisome proliferator-activated receptor gamma (PPARg) signaling pathway (AID 743191; calls by dose curve; also: % is scaled to controls: 0 for no effect and ±100 for the full control effect; nearly all actives have a fitted effect of over 30% in size); details: HEK293H PPARg-UAS-bla, beta-lactamase ratio, antagonist, 17 h; ratio activity, negative = inhibition: at 81.1 µM (top of the series)
Method in brief: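 GeneBLAzer PPARg UAS-bla HEK293H cells carrying a UAS-driven beta-lactamase reporter were plated at 3000 cells/well, preincubated 5 h at 37C, then given compound for 17 h at 37C; LiveBLAzer B/G FRET substrate was read after 1 h at room temperature.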

[13] = qHTS assay to identify small molecule agonists of the peroxisome proliferator-activated receptor delta (PPARd) signaling pathway - cell viability counter screen (AID 743211); details: PPARd-bla HEK293H viability, CellTiter-Glo luminescence, 17 h; also: potency is read from the fitted curve at half-maximal effect; nearly all actives have a fitted effect of over 55% in size
Method in brief: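 PPARd-bla HEK293H cells (3000/well) were pre-incubated 5 h at 37 C, then exposed to compound for 17 h at 37 C. After 2 h with LiveBLAzer substrate, CellTiter-Glo was added to the same wells; luminescence read after 30 min at room temperature.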

[14] = molecular target: Bile acid receptor (Homo sapiens) (UniProt Q96RI1); experiment: qHTS assay to identify small molecule antagonists of the farnesoid-X-receptor (FXR) signaling pathway (AID 743217; active = well fitted inhibition curve with a large enough effect in the signal ratio in the repeat runs, not every such curve was filed as active; inconclusive = weak or mixed curves, or effect the other way; inactive = no such curve, though single readings can be large or run the other way; the % refers to the signal ratio; also: % is scaled to controls: 0 for no effect and ±100 for the full control effect); details: HEK293T FXR-UAS-bla, beta-lactamase ratio, CDCA-stimulated, 16 h; activity change, negative = inhibition: at 81.1 µM (top of the series)
Method in brief: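 FRET fluorescence after 2 h room-temperature LiveBLAzer loading gives the readout. Prior step: FXR-bla HEK 293T cells, seeded and incubated 5 h, received test compounds plus 50 uM final CDCA for 16 h at 37 °C.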

[15] = qHTS assay to identify small molecule agonists of the farnesoid-X-receptor (FXR) signaling pathway - cell viability counter screen (AID 743218); details: FXR-bla HEK293T viability, CellTiter-Glo luminescence, 16 h; also: potency is read from the fitted curve at half-maximal effect; nearly all actives have a fitted effect of over 45% in size
Method in brief: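 Readout: CellTiter-Glo luminescence, 30 min RT, multiplexed after the FXR-bla FRET reading. HEK 293T FXR-UAS-bla cells received compound 5 h post-plating and were incubated 16 h at 37 C.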

[16] = molecular target: Bile acid receptor (Homo sapiens) (UniProt Q96RI1); experiment: qHTS assay to identify small molecule agonists of the farnesoid-X-receptor (FXR) signaling pathway (AID 743220; active = well fitted activation curve with a large enough effect in the signal ratio in the repeat runs, not every such curve was filed as active; inconclusive = weak or mixed curves, or effect the other way; the % refers to the signal ratio; also: potency is read from the fitted curve at half-maximal effect); details: HEK293T FXR-UAS-bla, beta-lactamase FRET ratio, 16 h
[17] = molecular target: Retinoic acid receptor RXR-alpha (Homo sapiens) (UniProt P19793); experiment: qHTS assay to identify small molecule agonists of the RXR signaling pathway (AID 1159527; calls by dose curve; also: potency is read from the fitted curve at half-maximal effect; nearly all actives have a fitted effect of over 35% in size); details: HEK293T RXRa-UAS-bla, beta-lactamase ratio, 16 h; activation: at 35.3 µM (top of the series)
Method in brief: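 GeneBLAzer RXR-alpha-UAS-bla HEK 293T cells in 2% charcoal-stripped FBS medium were exposed to compounds for 16 hr at 37 C in agonist mode. Beta-lactamase reporter read as 460/530 nm FRET ratio after 2 hr substrate loading.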

[18] = qHTS assay to identify small molecule antagonists of the estrogen related receptor (ERR) signaling pathway from Tox21 library - cell viability counter screen (AID 1224834); details: ERR reporter cells viability, CellTiter-Fluor, 17.5 h; also: potency is read from the fitted curve at half-maximal effect; nearly all actives have a fitted effect of over 30% in size
Method in brief: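 In this quantitative HTS format, ERR cells receive compounds in DMSO and are incubated for 17.5 h at 37 C. Live-cell protease activity is then detected with CellTiter-Fluor.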

[19] = qHTS assay to identify small molecule agonists of the constitutive androstane receptor (CAR) signaling pathway - cell viability counter screen (AID 1224836); details: HepG2-CYP2B6-hCAR viability, CellTiter-Fluor, 23 h; PK11195 added to every well
Method in brief: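 HepG2 cells stably carrying hCAR and a CYP2B6-2.2kb reporter; 15-concentration compounds plus PK11195 (final 0.75 uM), 23 hr at 37 C/5% CO2. Viability read by CellTiter-Fluor fluorescence.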

[20] = qHTS assay to identify small molecule antagonists of the constitutive androstane receptor (CAR) signaling pathway - cell viability counter screen (AID 1224837); details: HepG2-CYP2B6-hCAR viability, CellTiter-Fluor, 23 h; co-treated with 50 nM CITCO
Method in brief: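 In quantitative HTS format, compounds at 15 concentrations were applied to HepG2 cells double-transfected with hCAR and CYP2B6-2.2kb under 50 nM CITCO stimulation; live-cell protease activity was read after 23 hr via CellTiter-Fluor.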

[21] = qHTS assay to identify small molecule antagonists of the estrogen related receptor signaling pathway with the pleiotropic PPARgamma coactivator (PGC) from Tox21 10K library - cell viability counter screen (AID 1224840; active = well fitted cell-killing curve with a large enough effect in the repeat runs, not every such curve was filed as active; inconclusive = weak or mixed curves, or effect the other way; inactive = no such curve, though single readings can be large or run the other way; also: potency is read from the fitted curve at half-maximal effect; nearly all actives have a fitted effect of over 40% in size); details: PGC/ERR reporter cells viability, CellTiter-Fluor, 17.5 h
Method in brief: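 Viability counter screen, PGC/ERR cells: 17.5 h compound exposure at 37 C, CellTiter-Fluor fluorescence endpoint.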

[22] = qHTS assay to identify small molecule antagonists of the estrogen related receptor signaling pathway with the pleiotropic PPARgamma coactivator (PGC) from Tox21 10K library (AID 1224841; call rule not given here; also: potency is read from the fitted curve at half-maximal effect; actives are mostly falling curves and most rising ones were filed inactive; nearly all actives have a fitted effect of over 50% in size); details: PGC/ERR reporter cell line, ONE-Glo luciferase, 18 h
[23] = A CellTox Green Cytotoxicity Assay to monitor cytotoxicity in HEK293 cells - 40 hour (AID 1224871); details: CellTox Green fluorescence
Method in brief: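 Homogeneous no-lysis format: HEK293 cell suspension mixed with CellTox Green reagent, seeded, incubated 5 h at 37 C/5% CO2, then dosed by pintool with compound in DMSO.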

[24] = qHTS RealTime-Glo MT Cell Viability Assay in HEK293 cells - 8 hour (AID 1224887); details: RealTime-Glo luminescence; also: potency is read from the fitted curve at half-maximal effect; nearly all actives have a fitted effect of over 50% in size
Method in brief: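 Measured as luminescence from the same continuously cultured HEK293 wells at successive time points (0, 8, 16, 24, 32, 40 h) after compound addition. Reagent present from seeding; dosing at 5 h; incubation 37 C.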

[25] = molecular target: Androgen receptor (Homo sapiens) (UniProt P10275); experiment: qHTS assay to identify small molecule antagonists of the androgen receptor (AR) signaling pathway using the MDA cell line in the presence of 0.5 nM R1881 (AID 1259243); details: MDA-kb2 MMTV-luciferase, R1881 0.5 nM, 16 h; also: potency is read from the fitted curve at half-maximal effect; nearly all actives have a fitted effect of over 50% in size
[26] = molecular target: Estrogen receptor (Homo sapiens) (UniProt P03372); experiment: qHTS assay to identify small molecule antagonists of the estrogen receptor alpha (ER-alpha) signaling pathway using the BG1 cell line in the presence of 0.1 nM 17-beta-estradiol (AID 1259244); details: VM7Luc4E2 (BG1) ERE-luciferase, antagonist mode, 0.1 nM E2, 22 h; also: potency is read from the fitted curve at half-maximal effect; nearly all actives have a fitted effect of over 50% in size
[27] = qHTS assay to identify small molecule antagonists of the sonic hedgehog signaling (Shh) pathway (AID 1259369; calls by dose curve); details: NIH/3T3 Gli1-Luc reporter, Shh antagonist, luminescence 24 h
Method in brief: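 Gli1 transcriptional reporter (firefly Luc) in NIH/3T3 background, conditioned-medium activated. 24hr exposure, luminescence endpoint.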

[28] = qHTS assay to identify small molecule agonists of the androgen receptor (AR) signaling pathway in the presence of an antagonist - cell viability counter screen (AID 1259379); details: MDA-kb2 viability, CellTiter-Fluor, 16 h; also: potency is read from the fitted curve at half-maximal effect; nearly all actives have a fitted effect of over 25% in size
Method in brief: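 Counter screen for cell viability run in parallel with the AR agonist-mode luciferase assay. MDA-kb2 cells were co-treated with nilutamide (3.0uM final) and compounds, then incubated 16 hr at 37C, and CellTiter-Fluor fluorescence was measured.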

[29] = qHTS assay to identify small molecule agonists of the estrogen receptor beta (ER-beta) signaling pathway - cell viability counter screen (AID 1259380); details: ER-beta-bla HEK293T viability, CellTiter-Glo luminescence, 16 h; also: potency is read from the fitted curve at half-maximal effect; nearly all actives have a fitted effect of over 30% in size
Method in brief: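 In this qHTS counter screen, HEK293T cells carrying an ER-beta/UAS beta-lactamase reporter, grown in 2% charcoal-stripped FBS, received compound for 16 hr; ATP-based CellTiter-Glo luminescence was then read after 30 min at room temperature.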

[30] = molecular target: Progesterone receptor (Homo sapiens) (UniProt P06401); experiment: qHTS assay to identify small molecule antagonists of the progesterone receptor (PR) signaling pathway (AID 1346795; active = well fitted inhibition curve with a large enough effect in the signal ratio in the repeat runs, not every such curve was filed as active; inconclusive = weak or mixed curves; the % refers to the signal ratio; also: potency is read from the fitted curve at half-maximal effect); details: PR-UAS-bla HEK293T, beta-lactamase FRET ratio, 16 h; activity change, negative = inhibition: at 92.4 µM (top of the series)
Method in brief: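 PR-UAS-bla HEK293T cells with beta-lactamase reporter under UAS control, in 2% charcoal-stripped FBS, treated with compounds plus 1 nM promegestone (R5020, final) for 16 hr at 37C. Read-out: FRET beta-lactamase substrate fluorescence after 2 hr at room temperature.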

[31] = Caspase-3/7 induction in HepG2 cells by small molecules, qHTS cell viability counter screen (AID 1346981); details: CellTiter-Fluor fluorescence, 17 h; also: potency is read from the fitted curve at half-maximal effect; nearly all actives have a fitted effect of over 30% in size
Method in brief: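 The parent HepG2 line is plated at 2,000 cells per well and rested 5 hr before compound pinning from DMSO stocks. Following a 16-hr treatment at 37 C, a fluorogenic live-cell substrate (CellTiter-Fluor) reports viability after 1 hr.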

[32] = molecular target: Cytochrome P450 2C9 (Homo sapiens) (UniProt P11712); experiment: Cytochrome P450 Family 2 Subfamily C Member 9 (CYP2C9) small molecule antagonists: luciferase reporter qHTS assay (AID 1671198); details: P450-Glo CYP2C9 enzyme assay, luciferin luminescence
Method in brief: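 CYP2C9 activity was measured with a P450-Glo proluciferin substrate. Enzyme–substrate mix was held with compound for 10 min at room temperature, then NADPH regeneration solution was added for 1 h at 37C. Luciferin product was read as luminescence.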

CCC(=O)N(c1ccccc1)C1(COC)CCN(CCc2cccs2)CC1
inconclusive: ratio activity, negative = MMP loss [1] 44.5% | Potency [2] 61.6 µM | Potency [3] 54.9 µM | viability change, negative = cytotoxic [4] -39.2% | Potency [5] 68.5 µM | Potency [6] 30.9 µM | Potency [7] 54.4 µM | activity change, negative = inhibition [8] -14.8% | Potency [9] 30.6 µM | Potency [10] 68.5 µM | Potency [11] 30.9 µM | ratio activity, negative = inhibition [12] -0.0273% | Potency [13] 15.3 µM | activity change, negative = inhibition [14] -25.9% | Potency [15] 153 µM | Potency [16] 61.1 µM | Potency [17] 38.9 µM | Potency [18] 68.5 µM | Potency [19] 54.4 µM | Potency [20] 30.6 µM | Potency [21] 48.5 µM | Potency [22] 27.3 µM | Potency [23] 54.9 µM | Potency [24] 54.9 µM | Potency [25] 76.9 µM | Potency [26] 48.5 µM | Potency [27] 30.6 µM | Potency [28] 54.4 µM | Potency [29] 30.6 µM | Potency [30] 68.5 µM | Potency [31] 68.5 µM | Potency [32] 63.3 µM
